Laboratory results as given in patent US8163795B2, “Chroman derivatives, medicaments and use in therapy” (Marshall Edwards, Inc., priority 2004, dated 2012).
The name of at least one read-out is uncertain.

Assay: DHE and HMC pharmacokinetics, oral, mice
Type: in vivo, female BALB/c mice
Conditions: oral 50 mg/kg, total
Method: HMC and DHE were prepared as homogenous suspensions in 1% CMC (m:v, water). Both formulations were delivered orally by gavage to female BALB/c mice at a dosage of 50 mg/kg. Three animals were allocated to each timepoint (15 min, 30 min, 1 hr, 4 hr and 24 hr). At each respective timepoint, animals were euthanased by cervical dislocation and blood collected. Free HMC was analysed by mass spectroscopy.

**Q.** For `Oc1ccc(C2=Cc3ccc(O)cc3OC2)cc1` [DHE, dehydroequol, reference compound], which “time at which Cmax achieved” value is on record?
**A.** 15 min
